We go through 25 substances from article PMC5397059 (PLoS ONE, 2017).

Non-standard residues stand in square brackets, D forms with d. *: point of attachment. Asn(Trt) = N[C@@H](CC(=O)NC(c1ccccc1)(c1ccccc1)c1ccccc1)C(=O)O; Pbf = Cc1c(C)c(S(=O)(=O)*)c(C)c2c1OC(C)(C)C2; Phe(4-Cl) = N[C@@H](Cc1ccc(Cl)cc1)C(=O)O; dPhe(4-Cl) = N[C@H](Cc1ccc(Cl)cc1)C(=O)O; NMeN = CN[C@@H](CC(N)=O)C(=O)O; NMeL = CN[C@@H](CC(C)C)C(=O)O; NMeV = CN[C@H](C(=O)O)C(C)C; dOrn = NCCC[C@@H](N)C(=O)O; Boc = CC(C)(C)OC(=O)*; tBu = CC(C)(C)*

The nature of one data set: general procedure: Fmoc solid-phase peptide synthesis; 2-chlorotrityl chloride; HATU/DIPEA in NMP; cyclisation in solution with HATU/HOBt/DIPEA. Particulars: whole synthesis, scale 0.3 mmol.
For the substance “H2N-Trp(Boc)-Leu-N-Me-D-Leu-Val-N-Me-Asn(Trt)-D-Orn(Boc)-COOH”, the crude yield amounted to 95%.

In turn, “H2N-Val-N-Me-Asn(Trt)-D-Orn(Boc)-Trp(Boc)-N-Me-Leu-D-Leu-COOH” displayed a crude yield of 96%.

“H-V[Asn(Trt)][dOrn](Boc)[Phe(4-Cl)]L[dL]-OH”: the crude yield was 98%.

The substance H-W(Boc)L[dL]IS(tBu)[dOrn](Boc)-OH had a crude yield of 78%.

As for “H-W(Boc)[NMeL][dL][NMeV][Asn(Trt)][dOrn](Boc)-OH”, the crude yield was 90%.

In the case of H-[dL]II[dOrn](Boc)W(Boc)L-OH, the crude yield was found to be 104%.

For the substance H-[dL]I[Asn(Trt)][dR](Pbf)W(Boc)L-OH, the crude yield is listed as 96%.

In turn, H-[dL]M[Asn(Trt)][dOrn](Boc)W(Boc)L-OH registered a crude yield of 96%.

Turning to H-[dL]V[dOrn](Boc)[dOrn](Boc)W(Boc)L-OH, the crude yield was found to be 95%.

Regarding “H-[dL][NMeV][Asn(Trt)][dOrn](Boc)W(Boc)L-OH”, the crude yield came to 93%.

Staying with this data set, now noted: whole synthesis, scale 0.5 mmol.
Substance H-W(Boc)[dOrn](Boc)[Asn(Trt)]V[dL]L-OH registered a crude yield of 92%.

The next data set in a line: general procedure: Fmoc solid-phase peptide synthesis; 2-chlorotrityl chloride resin; HATU/DIPEA in NMP; cyclisation in solution with HATU/HOBt/DIPEA. Particulars: cyclisation step.
Substance “cyclo(W(Boc)[dOrn](Boc)[Asn(Trt)]A[dL]L)” had a cyclisation yield of 56%.

“cyclo(W(Boc)[dOrn](Boc)[Asn(Trt)]V[dA]L)” showed a cyclisation yield of 64%.

On to “cyclo(W(Boc)[dOrn](Boc)[Asn(Trt)]V[dL]A)”, for which the cyclisation yield turned out to be 45%.

Take “cyclo(W(Boc)[dOrn](Boc)[Asn(Trt)]V[dL]L)”: the cyclisation yield worked out at 50%.

Take “cyclo([Asn(Trt)][dOrn](Boc)W(Boc)I[dL]V)”: the cyclisation yield turned out to be 47%.

As for cyclo([Asn(Trt)][dOrn](Boc)W(Boc)LIV), the cyclisation yield is listed as 47%.

In turn, “cyclo([Asn(Trt)][dOrn](Boc)W(Boc)[dPhe(4-Cl)][dL]V)” yielded a cyclisation yield of 54%.

The substance cyclo([dL]II[dOrn](Boc)W(Boc)L) showed a cyclisation yield of 54%.

With “cyclo([dL]V[dOrn](Boc)[dOrn](Boc)W(Boc)L)”, the cyclisation yield turned out to be 40%.

The substance “cyclo([dL][NMeV][Asn(Trt)][dOrn](Boc)W(Boc)L)” returned a cyclisation yield of 60%.

As to “cyclo([dPhe(4-Cl)]V[Asn(Trt)][dOrn](Boc)W(Boc)L)”, the cyclisation yield turned out to be 53%.

“cyclo([dPhe(4-Cl)][dOrn](Boc)[Asn(Trt)]V[dL]L)”: the cyclisation yield amounted to 43%.

Staying with this data set, now noted: late stage modification step.
Substance “cyclo([NMeL][dL]V[NMeN][dOrn]W) (SMILES CC(C)C[C@H]1NC(=O)[C@H](CC(C)C)N(C)C(=O)[C@H](Cc2c[nH]c3ccccc23)NC(=O)[C@@H](CCCN)NC(=O)[C@H](CC(N)=O)N(C)C(=O)[C@H](C(C)C)NC1=O)” returned a step yield of 60%.

The substance “cyclo([dOrn]WL[dL]VN) (SMILES CC(C)C[C@@H]1NC(=O)[C@H](Cc2c[nH]c3ccccc23)NC(=O)[C@@H](CCCN)NC(=O)[C@H](CC(N)=O)NC(=O)[C@H](C(C)C)NC(=O)[C@@H](CC(C)C)NC1=O)” returned a step yield of 91%.

The same data set, now with this note: late stage modification step, UPLC-MS (UV).
Regarding “cyclo([NMeL][dL]V[NMeN][dOrn]W) (SMILES CC(C)C[C@H]1NC(=O)[C@H](CC(C)C)N(C)C(=O)[C@H](Cc2c[nH]c3ccccc23)NC(=O)[C@@H](CCCN)NC(=O)[C@H](CC(N)=O)N(C)C(=O)[C@H](C(C)C)NC1=O)”, the “final HPLC purity” value amounted to 97%.

“cyclo([dOrn]WL[dL]VN) (SMILES CC(C)C[C@@H]1NC(=O)[C@H](Cc2c[nH]c3ccccc23)NC(=O)[C@@H](CCCN)NC(=O)[C@H](CC(N)=O)NC(=O)[C@H](C(C)C)NC(=O)[C@@H](CC(C)C)NC1=O)”: the “final HPLC purity” value stood at 99.9%.
